Results are given in words; binding and its absence hold for the method and conditions named. Blank lines part the entries; values can stand above or below the binder they belong to.
Key:
Assay in all cases: SEC; Superdex-75 26/60 HiLoad column, 50 mM Tris (pH 8.0), 100 mM NaCl; elution after Ni-NTA; both purified
[1] = target: GH3-N2/C5 chimera (N-terminal domain of AtGH3.2/YDK2 and C-terminal domain of AtGH3.5/WES1) (Arabidopsis thaliana) (UniProt Q9SZT9+O81829)
[2] = target: GH3-N5/C2 chimera (N-terminal domain of AtGH3.5/WES1 and C-terminal domain of AtGH3.2/YDK2) (Arabidopsis thaliana) (UniProt O81829+Q9SZT9)
[3] = target: AtGH3.2/YDK2 (Arabidopsis thaliana) (UniProt Q9SZT9)
[4] = target: AtGH3.5/WES1 (Arabidopsis thaliana) (UniProt O81829)

- binding [1]: no binding
B1: GH3-N2/C5 chimera (N-terminal domain of AtGH3.2/YDK2 and C-terminal domain of AtGH3.5/WES1) (enzyme, UniProt Q9SZT9 1-442; O81829 450-608)
chain: MAVDSPLQSRMVSATTSEKDVKALKFIEEMTRNPDSVQEKVLGEILTRNSNTEYLKRFDLDGVVDRKTFKSKVPVVTYEDLKPEIQRISNGDCSPILSSHPITEFLTSSGTSAGERKLMPTIEEDLDRRQLLYSLLMPVMNLYVPGLDKGKGLYFLFVKSESKTSGGLPARPVLTSYYKSDHFKRRPYDPYNVYTSPNEAILCSDSSQSMYAQMLCGLLMRHEVLRLGAVFASGLLRAISFLQNNWKELARDISTGTLSSRIFDPAIKNRMSKILTKPDQELAEFLVGVCSQENWEGIITKIWPNTKYLDVIVTGAMAQYIPTLEYYSGGLPMACTMYASSESYFGINLKPMCKPSEVSYTIMPNMAYFEFLPHNHDGDGAAEASLDETSLVELANVEVGKEYELVITTYAGLYRYRVGDILRVTGFHNSAPQFKFIRRKNVVLSIDSDKTDEVELQNAVKNAVTHLVPFDASLSEYTSYADTSSIPGHYVLFWELCLDGNTPIPPSVFEDCCLAVEESFNTVYRQGRVSDKSIGPLEIKIVEPGTFDKLMDYAISLGASINQYKTPRCVKFAPIIELLNSRVVDSYFSPKCPKWVPGHKQ

- binding [2]: no binding
B2: GH3-N5/C2 chimera (N-terminal domain of AtGH3.5/WES1 and C-terminal domain of AtGH3.2/YDK2) (enzyme, UniProt O81829 1-449; Q9SZT9 443-549)
chain: MPEAPKKESLEVFDLTLDQKNKQKLQLIEELTSNADQVQRQVLEEILTRNADVEYLRRHDLNGRTDRETFKNIMPVITYEDIEPEINRIANGDKSPILSSKPISEFLTSSGTSGGERKLMPTIEEELDRRSLLYSLLMPVMSQFVPGLENGKGMYFLFIKSESKTPGGLPARPVLTSYYKSSHFKERPYDPYTNYTSPNETILCSDSYQSMYSQMLCGLCQHQEVLRVGAVFASGFIRAIKFLEKHWIELVRDIRTGTLSSLITDPSVREAVAKILKPSPKLADFVEFECKKSSWQGIITRLWPNTKYVDVIVTGTMSQYIPTLDYYSNGLPLVCTMYASSECYFGVNLRPLCKPSEVSYTLIPSMAYFEFLPVHRNNGVTNSINLPKALTEKEQQELVDLVDVKLGQEYELVVTTYAGLCRYRVGDLLRVTGFKNKAPQFSFICRKNVLLSVESDKTDEAELQKAVENASRLFAEQGTRVIEYTSYAETKTIPGHYVIYWELLGRDQSNALMSEEVMAKCCLEMEESLNSVYRQSRVADKSIGPLGDTCGTERYV

- binding [3]: no binding
B3: AtGH3.2/YDK2 (enzyme, UniProt Q9SZT9 1-549)
chain: MAVDSPLQSRMVSATTSEKDVKALKFIEEMTRNPDSVQEKVLGEILTRNSNTEYLKRFDLDGVVDRKTFKSKVPVVTYEDLKPEIQRISNGDCSPILSSHPITEFLTSSGTSAGERKLMPTIEEDLDRRQLLYSLLMPVMNLYVPGLDKGKGLYFLFVKSESKTSGGLPARPVLTSYYKSDHFKRRPYDPYNVYTSPNEAILCSDSSQSMYAQMLCGLLMRHEVLRLGAVFASGLLRAISFLQNNWKELARDISTGTLSSRIFDPAIKNRMSKILTKPDQELAEFLVGVCSQENWEGIITKIWPNTKYLDVIVTGAMAQYIPTLEYYSGGLPMACTMYASSESYFGINLKPMCKPSEVSYTIMPNMAYFEFLPHNHDGDGAAEASLDETSLVELANVEVGKEYELVITTYAGLYRYRVGDILRVTGFHNSAPQFKFIRRKNVLLSVESDKTDEAELQKAVENASRLFAEQGTRVIEYTSYAETKTIPGHYVIYWELLGRDQSNALMSEEVMAKCCLEMEESLNSVYRQSRVADKSIGPLGDTCGTERYV

- binding [4]: no binding
B4: AtGH3.5/WES1 (enzyme, UniProt O81829 1-612)
chain: MPEAPKKESLEVFDLTLDQKNKQKLQLIEELTSNADQVQRQVLEEILTRNADVEYLRRHDLNGRTDRETFKNIMPVITYEDIEPEINRIANGDKSPILSSKPISEFLTSSGTSGGERKLMPTIEEELDRRSLLYSLLMPVMSQFVPGLENGKGMYFLFIKSESKTPGGLPARPVLTSYYKSSHFKERPYDPYTNYTSPNETILCSDSYQSMYSQMLCGLCQHQEVLRVGAVFASGFIRAIKFLEKHWIELVRDIRTGTLSSLITDPSVREAVAKILKPSPKLADFVEFECKKSSWQGIITRLWPNTKYVDVIVTGTMSQYIPTLDYYSNGLPLVCTMYASSECYFGVNLRPLCKPSEVSYTLIPSMAYFEFLPVHRNNGVTNSINLPKALTEKEQQELVDLVDVKLGQEYELVVTTYAGLCRYRVGDLLRVTGFKNKAPQFSFICRKNVVLSIDSDKTDEVELQNAVKNAVTHLVPFDASLSEYTSYADTSSIPGHYVLFWELCLDGNTPIPPSVFEDCCLAVEESFNTVYRQGRVSDKSIGPLEIKIVEPGTFDKLMDYAISLGASINQYKTPRCVKFAPIIELLNSRVVDSYFSPKCPKWVPGHKQWGSN

Reference: PMC11253546, “Fidelity in plant hormone modifications catalyzed by Arabidopsis GH3 acyl acid amido synthetases” (The Journal of Biological Chemistry, 2024)
